Measurements as given in PMC12638999.
Results are given in words; binding and its absence hold for the method and conditions named. For some of these results: Binding seen in cells or lysates may run through a third protein. Some binding calls cover weakened binding; strength is not graded here. For some of these results: Where a sequence is shown, tags or fusion partners need not be part of it. Each block holds one molecule with its values, some of them ahead of it.

Amino acid sequences for entries named in this document (tags omitted). A change or cut given only in a name is not applied to a line headed by its entry.
UniProt P06733: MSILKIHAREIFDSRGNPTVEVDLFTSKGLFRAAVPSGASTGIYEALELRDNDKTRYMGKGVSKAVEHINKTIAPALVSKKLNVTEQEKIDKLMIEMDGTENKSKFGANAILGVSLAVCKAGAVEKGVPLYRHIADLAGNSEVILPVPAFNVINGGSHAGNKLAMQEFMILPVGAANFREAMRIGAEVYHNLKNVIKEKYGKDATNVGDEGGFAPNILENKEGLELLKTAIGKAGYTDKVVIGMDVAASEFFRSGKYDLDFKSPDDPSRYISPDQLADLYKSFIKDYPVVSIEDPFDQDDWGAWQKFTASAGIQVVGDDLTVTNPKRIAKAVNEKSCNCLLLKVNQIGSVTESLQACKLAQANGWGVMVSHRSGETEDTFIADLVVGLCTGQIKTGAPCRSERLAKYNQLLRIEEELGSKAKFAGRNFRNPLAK

Key:
[1] = molecular target: T1, UCHL3 (179-230 AA) fragment (UniProt P15374); assay: co-IP; truncated plasmids of UCHL3 and ENO1; immunoprecipitation to find the binding region
T1 sequence: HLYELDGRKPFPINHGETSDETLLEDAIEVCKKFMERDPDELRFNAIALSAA

[2] = molecular target: T2, UCHL3, endogenous in HGC-27 cells (human (endogenous in HGC-27)) (UniProt P15374); assay: co-IP; endogenous: total protein of HGC-27 cells incubated with specific antibodies overnight, captured on Protein A/G beads
T2 sequence: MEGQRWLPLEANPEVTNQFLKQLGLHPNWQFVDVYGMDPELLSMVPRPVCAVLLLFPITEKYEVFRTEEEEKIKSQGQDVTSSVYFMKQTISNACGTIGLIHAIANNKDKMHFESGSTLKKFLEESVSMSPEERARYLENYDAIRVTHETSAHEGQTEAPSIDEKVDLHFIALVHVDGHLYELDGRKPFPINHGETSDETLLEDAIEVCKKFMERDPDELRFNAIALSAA

[3] = molecular target: T3, Flag-UCHL3 (ubiquitin carboxyl-terminal hydrolase L3) (UniProt P15374); assay: co-IP; exogenous: Flag-UCHL3 and HA-ENO1 plasmids transfected into HEK-293T cells; anti-DYKDDDDK or anti-HA magnetic beads; SDS-PAGE and blot
T3 sequence: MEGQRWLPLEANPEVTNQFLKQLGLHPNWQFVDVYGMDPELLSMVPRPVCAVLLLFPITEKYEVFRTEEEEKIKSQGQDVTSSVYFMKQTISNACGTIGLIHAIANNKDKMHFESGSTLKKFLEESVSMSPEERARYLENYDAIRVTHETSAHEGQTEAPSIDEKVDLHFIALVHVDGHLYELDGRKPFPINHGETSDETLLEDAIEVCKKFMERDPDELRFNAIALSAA

[4] = molecular target: GST-ENO1 fusion protein (Proteintech Ag1692) (UniProt P06733); assay: pull-down; His-UCHL3 and GST-ENO1 incubated in binding buffer at 4 °C overnight, then anti-GST magnetic beads for 4 h; SDS-PAGE, Coomassie Brilliant Blue staining; both purified

- binding [2]: binds
Molecule: ENO1, endogenous in HGC-27 cells (from UniProt P06733 1-434)

- binding [3]: binds
Molecule: HA-ENO1 (from UniProt P06733 1-434)

The next lines start with the molecule.

Molecule: ENO1 (140-434 AA) fragment (from UniProt P06733 140-434) (domain or fragment)
- binding [1]: binds

B1: His-UCHL3 fusion protein (Proteintech Ag32925) (enzyme, UniProt P15374 1-230)
chain: MEGQRWLPLEANPEVTNQFLKQLGLHPNWQFVDVYGMDPELLSMVPRPVCAVLLLFPITEKYEVFRTEEEEKIKSQGQDVTSSVYFMKQTISNACGTIGLIHAIANNKDKMHFESGSTLKKFLEESVSMSPEERARYLENYDAIRVTHETSAHEGQTEAPSIDEKVDLHFIALVHVDGHLYELDGRKPFPINHGETSDETLLEDAIEVCKKFMERDPDELRFNAIALSAA
- binding [4]: binds
